In paper PMC7016952, “Characterization of the Menin-MLL Interaction as Therapeutic Cancer Target” (Cancers, 2020) one finds binding data, which are given here for 1 substance.

By UniProt entry, the sequences of proteins in these tests, tags left out. Where a name states a change or a piece, a line headed by the entry shows the natural chain unless it says otherwise.
UniProt Q03164: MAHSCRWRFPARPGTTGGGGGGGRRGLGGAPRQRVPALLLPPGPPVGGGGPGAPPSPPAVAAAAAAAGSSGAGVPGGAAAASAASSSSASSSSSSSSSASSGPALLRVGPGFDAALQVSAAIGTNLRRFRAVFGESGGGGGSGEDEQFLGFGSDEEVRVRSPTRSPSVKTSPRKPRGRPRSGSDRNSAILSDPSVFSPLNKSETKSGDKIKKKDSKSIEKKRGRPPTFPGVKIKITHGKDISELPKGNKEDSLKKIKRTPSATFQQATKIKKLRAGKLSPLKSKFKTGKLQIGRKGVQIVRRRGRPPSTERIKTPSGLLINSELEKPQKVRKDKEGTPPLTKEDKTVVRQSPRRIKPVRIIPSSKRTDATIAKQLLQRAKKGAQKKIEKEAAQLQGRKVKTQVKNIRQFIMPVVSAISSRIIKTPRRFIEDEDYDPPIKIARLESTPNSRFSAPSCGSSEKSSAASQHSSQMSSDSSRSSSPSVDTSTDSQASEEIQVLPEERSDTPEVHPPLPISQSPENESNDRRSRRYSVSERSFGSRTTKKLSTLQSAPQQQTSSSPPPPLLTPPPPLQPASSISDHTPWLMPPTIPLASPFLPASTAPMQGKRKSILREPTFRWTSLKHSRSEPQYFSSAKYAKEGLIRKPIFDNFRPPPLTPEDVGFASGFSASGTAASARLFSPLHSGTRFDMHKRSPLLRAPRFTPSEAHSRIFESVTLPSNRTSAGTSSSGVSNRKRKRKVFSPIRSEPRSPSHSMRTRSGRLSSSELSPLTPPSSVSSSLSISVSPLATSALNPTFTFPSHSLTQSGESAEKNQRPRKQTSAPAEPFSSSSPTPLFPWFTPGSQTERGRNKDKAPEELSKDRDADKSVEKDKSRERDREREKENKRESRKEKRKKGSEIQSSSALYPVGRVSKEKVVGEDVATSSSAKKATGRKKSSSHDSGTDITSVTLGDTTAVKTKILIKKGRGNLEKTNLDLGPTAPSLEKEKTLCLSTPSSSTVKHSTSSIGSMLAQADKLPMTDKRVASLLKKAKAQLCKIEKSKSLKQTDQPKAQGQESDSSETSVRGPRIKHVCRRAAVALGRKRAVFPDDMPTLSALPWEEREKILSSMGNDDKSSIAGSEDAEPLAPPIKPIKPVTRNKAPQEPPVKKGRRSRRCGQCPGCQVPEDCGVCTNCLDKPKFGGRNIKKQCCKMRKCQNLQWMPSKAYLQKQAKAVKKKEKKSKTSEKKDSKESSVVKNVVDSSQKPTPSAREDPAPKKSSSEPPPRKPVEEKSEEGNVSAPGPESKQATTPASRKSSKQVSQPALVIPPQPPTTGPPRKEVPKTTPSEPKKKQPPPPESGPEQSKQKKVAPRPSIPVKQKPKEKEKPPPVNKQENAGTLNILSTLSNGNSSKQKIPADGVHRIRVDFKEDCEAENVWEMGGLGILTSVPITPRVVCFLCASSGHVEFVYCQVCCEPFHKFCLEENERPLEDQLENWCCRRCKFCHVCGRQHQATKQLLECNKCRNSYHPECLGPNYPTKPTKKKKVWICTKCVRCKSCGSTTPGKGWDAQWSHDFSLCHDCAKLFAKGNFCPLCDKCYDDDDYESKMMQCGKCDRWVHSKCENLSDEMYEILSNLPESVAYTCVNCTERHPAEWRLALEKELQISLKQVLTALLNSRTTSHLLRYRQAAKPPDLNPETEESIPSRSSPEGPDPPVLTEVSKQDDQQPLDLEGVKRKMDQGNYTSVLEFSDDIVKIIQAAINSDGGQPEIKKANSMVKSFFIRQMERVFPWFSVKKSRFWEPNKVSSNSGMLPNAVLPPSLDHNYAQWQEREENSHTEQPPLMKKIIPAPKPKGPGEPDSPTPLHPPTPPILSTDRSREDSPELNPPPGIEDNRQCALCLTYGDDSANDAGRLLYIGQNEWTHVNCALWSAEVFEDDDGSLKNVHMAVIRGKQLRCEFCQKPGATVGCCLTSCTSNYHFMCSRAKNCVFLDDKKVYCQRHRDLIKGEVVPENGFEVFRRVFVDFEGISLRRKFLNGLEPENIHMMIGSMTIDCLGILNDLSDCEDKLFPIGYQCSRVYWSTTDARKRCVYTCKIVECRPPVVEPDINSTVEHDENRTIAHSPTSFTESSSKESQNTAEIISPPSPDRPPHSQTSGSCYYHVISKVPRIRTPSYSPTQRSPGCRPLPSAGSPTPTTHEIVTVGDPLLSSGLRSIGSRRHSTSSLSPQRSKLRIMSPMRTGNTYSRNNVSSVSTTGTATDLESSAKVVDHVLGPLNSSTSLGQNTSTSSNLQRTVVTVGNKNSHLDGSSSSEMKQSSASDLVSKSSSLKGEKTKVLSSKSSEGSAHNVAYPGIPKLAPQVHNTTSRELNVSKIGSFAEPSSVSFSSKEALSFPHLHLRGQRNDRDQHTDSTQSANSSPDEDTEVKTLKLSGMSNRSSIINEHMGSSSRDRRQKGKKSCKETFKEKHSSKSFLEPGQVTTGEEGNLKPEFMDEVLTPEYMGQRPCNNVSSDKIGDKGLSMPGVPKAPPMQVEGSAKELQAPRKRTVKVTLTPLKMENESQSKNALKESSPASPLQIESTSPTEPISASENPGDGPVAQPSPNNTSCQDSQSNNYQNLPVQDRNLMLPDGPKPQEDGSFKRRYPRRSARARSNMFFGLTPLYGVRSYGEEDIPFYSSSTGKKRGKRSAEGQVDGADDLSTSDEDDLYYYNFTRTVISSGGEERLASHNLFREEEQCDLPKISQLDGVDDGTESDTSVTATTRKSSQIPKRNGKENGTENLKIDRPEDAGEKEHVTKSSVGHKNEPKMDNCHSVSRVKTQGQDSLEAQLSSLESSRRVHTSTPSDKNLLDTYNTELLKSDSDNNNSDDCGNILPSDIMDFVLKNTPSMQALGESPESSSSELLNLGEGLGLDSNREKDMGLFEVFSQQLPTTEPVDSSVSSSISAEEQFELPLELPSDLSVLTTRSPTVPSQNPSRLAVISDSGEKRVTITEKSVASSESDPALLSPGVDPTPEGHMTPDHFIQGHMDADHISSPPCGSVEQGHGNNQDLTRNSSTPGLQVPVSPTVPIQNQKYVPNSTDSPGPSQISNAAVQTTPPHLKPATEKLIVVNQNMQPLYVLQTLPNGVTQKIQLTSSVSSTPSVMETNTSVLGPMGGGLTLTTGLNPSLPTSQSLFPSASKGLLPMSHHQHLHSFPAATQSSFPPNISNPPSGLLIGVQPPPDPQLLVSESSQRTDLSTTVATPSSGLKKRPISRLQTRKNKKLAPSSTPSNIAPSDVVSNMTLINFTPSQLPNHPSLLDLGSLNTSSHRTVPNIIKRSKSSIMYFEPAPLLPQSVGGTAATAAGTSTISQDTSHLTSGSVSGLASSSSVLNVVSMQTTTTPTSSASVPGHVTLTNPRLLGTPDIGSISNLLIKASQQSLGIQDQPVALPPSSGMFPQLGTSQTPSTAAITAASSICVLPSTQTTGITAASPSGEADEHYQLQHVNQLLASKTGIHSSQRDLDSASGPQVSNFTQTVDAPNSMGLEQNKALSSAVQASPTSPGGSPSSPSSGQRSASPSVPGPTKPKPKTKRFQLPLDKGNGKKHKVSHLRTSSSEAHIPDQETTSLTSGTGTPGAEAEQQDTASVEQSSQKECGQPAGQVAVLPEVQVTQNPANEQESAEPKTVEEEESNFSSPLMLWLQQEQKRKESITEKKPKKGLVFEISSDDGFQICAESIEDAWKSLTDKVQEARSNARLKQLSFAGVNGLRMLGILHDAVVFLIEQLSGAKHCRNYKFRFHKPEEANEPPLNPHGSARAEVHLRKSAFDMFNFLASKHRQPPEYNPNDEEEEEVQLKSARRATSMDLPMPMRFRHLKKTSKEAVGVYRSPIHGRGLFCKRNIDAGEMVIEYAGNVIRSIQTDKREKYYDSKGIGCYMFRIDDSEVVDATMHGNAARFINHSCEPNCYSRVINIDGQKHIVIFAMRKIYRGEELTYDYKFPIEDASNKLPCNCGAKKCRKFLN

For the assay, the target named is T1, recombinant full length, His-tagged menin (human) (UniProt O00255).
T1 sequence: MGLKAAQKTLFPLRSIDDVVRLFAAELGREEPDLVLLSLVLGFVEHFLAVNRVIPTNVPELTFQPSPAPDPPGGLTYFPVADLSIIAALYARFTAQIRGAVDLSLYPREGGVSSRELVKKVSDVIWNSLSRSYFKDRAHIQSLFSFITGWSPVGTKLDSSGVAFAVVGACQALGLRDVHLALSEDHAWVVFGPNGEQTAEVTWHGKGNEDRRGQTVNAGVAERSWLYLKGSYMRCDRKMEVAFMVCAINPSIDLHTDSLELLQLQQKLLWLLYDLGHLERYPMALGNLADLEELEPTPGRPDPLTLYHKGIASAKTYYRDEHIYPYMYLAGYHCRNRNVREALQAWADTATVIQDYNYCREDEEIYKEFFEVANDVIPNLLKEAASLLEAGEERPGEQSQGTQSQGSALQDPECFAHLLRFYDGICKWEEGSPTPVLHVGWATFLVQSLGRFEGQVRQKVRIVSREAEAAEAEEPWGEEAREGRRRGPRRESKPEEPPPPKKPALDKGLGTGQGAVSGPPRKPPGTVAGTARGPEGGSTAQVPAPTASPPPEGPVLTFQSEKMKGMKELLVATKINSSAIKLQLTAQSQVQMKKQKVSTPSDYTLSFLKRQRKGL
Briefly: AlphaScreen or HTRF; TR-FRET competition assay: 2 nM His-menin, 50 nM biotinylated MLL1 peptide, 2 nM anti-6XHis-Tb cryptate and 50 nM Streptavidin XL-665 (Cisbio), 0.1 nM to 20 uM small-molecule test compounds; 50 mM Tris/HCl pH 7.5, 50 mM NaCl, 0.1% BSA, 1 mM DTT; 0.5-4 h at RT; vehicle control = full binding; both purified.

These are yes or no findings as the source states them, for the method shown. Some entries that bind do so weakly or less than the wild type. Where a sequence is shown, tags or fusion partners need not be part of it.

“synthetic biotinylated MLL1 a.a. 4-15 (from UniProt Q03164 4-15) (peptide)”: the binding result is reported as “binds”.
